Test results as given in the supplement of paper PMC12819154, “High-throughput peptide-centric local stability assay extends protein–ligand identification to membrane proteins, tissues and bacteria” (Nature Structural & Molecular Biology, 2025).
Some of the results follow. Small differences around the control level are noise.

Protein sequences, listed by entry. Tags and fused reporters are not part of them. Lines headed by an entry give the natural chain unless they say otherwise; changes in a name come on top.
UniProt P28838: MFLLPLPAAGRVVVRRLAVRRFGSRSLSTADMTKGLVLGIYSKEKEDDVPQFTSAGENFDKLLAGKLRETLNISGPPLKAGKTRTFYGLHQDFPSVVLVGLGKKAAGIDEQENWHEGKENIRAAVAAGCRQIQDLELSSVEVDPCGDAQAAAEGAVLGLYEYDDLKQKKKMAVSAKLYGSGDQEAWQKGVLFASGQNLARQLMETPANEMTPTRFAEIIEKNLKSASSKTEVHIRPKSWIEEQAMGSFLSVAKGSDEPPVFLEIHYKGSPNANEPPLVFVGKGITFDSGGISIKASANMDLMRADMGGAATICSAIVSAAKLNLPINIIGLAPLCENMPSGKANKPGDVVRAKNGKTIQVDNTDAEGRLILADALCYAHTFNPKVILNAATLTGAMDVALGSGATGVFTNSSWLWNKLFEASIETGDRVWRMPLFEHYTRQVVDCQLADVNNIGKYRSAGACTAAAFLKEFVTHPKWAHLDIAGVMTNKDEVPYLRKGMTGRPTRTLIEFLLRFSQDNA
UniProt P43268: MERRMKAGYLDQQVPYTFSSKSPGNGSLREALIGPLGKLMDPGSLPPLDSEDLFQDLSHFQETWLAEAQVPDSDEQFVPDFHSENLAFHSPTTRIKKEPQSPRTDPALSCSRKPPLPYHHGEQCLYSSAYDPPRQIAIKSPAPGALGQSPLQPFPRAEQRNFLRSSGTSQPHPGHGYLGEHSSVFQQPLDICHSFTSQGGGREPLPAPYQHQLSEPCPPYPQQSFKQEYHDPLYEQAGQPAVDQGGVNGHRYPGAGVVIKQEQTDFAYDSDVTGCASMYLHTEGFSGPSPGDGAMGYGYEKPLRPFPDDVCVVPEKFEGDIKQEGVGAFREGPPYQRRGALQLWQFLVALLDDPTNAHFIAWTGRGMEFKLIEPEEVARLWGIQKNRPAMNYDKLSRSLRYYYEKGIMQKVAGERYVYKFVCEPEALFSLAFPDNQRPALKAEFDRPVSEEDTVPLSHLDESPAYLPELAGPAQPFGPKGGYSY
UniProt P39687: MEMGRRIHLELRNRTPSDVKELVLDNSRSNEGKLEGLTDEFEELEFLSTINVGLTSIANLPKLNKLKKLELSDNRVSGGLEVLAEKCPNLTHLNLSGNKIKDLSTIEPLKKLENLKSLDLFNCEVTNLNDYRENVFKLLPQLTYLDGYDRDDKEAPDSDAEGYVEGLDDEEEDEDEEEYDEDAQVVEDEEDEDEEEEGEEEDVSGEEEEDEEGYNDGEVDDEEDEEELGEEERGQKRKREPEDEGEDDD
UniProt P31949: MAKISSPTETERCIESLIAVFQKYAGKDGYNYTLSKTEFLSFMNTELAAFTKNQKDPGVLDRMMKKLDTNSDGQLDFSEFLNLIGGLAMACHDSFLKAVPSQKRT
UniProt P31321, whole entry: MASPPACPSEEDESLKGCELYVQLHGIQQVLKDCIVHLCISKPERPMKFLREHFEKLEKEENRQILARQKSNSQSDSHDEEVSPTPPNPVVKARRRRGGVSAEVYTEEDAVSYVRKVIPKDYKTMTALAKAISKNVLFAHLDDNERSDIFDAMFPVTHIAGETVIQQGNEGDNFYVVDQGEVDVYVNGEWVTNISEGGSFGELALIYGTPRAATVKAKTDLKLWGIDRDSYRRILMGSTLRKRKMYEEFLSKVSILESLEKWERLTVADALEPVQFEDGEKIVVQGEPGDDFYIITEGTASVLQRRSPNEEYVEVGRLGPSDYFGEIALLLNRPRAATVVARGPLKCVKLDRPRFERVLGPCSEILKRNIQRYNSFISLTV
UniProt P43686, whole entry: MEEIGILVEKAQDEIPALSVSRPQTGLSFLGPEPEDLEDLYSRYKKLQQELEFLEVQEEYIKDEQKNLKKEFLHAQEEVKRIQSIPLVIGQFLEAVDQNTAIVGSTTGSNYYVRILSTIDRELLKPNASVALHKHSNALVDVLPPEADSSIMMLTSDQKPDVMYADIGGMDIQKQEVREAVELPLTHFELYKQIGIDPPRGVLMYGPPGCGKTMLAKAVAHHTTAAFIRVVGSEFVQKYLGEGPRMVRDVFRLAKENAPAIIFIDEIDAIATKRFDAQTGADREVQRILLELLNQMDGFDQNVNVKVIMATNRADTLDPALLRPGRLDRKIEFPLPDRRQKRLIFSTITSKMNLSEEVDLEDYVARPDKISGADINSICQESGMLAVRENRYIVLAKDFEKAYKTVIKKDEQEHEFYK
UniProt P28715: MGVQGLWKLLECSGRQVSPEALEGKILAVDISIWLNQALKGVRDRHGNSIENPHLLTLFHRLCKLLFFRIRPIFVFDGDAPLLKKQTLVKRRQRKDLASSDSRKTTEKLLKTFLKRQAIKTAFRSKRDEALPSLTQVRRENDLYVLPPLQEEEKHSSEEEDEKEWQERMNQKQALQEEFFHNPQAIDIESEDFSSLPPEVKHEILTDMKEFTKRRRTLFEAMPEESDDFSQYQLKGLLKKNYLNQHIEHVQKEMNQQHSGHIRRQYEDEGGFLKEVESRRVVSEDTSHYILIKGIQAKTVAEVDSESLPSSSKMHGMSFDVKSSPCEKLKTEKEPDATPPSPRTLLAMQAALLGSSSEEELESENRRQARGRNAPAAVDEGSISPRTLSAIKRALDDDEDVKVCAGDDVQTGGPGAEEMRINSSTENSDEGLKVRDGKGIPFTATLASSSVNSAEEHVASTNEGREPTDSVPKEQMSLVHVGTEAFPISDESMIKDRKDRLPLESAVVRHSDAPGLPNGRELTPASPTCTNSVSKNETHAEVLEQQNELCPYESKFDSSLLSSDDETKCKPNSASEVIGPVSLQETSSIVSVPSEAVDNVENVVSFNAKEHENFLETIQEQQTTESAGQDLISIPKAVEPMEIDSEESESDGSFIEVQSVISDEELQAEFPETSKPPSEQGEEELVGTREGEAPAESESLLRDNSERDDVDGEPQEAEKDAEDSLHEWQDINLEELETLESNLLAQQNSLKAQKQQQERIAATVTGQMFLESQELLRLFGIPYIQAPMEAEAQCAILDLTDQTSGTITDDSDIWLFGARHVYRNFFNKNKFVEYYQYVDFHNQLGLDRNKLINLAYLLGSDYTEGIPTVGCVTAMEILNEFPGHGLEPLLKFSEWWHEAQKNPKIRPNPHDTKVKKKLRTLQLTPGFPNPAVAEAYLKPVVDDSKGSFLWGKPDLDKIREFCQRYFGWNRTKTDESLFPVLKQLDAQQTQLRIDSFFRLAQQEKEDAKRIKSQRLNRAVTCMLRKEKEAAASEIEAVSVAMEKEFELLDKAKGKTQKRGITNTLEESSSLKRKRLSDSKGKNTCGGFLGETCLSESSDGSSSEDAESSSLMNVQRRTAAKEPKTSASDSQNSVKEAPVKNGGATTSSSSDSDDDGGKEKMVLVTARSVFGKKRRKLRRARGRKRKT
UniProt P45983: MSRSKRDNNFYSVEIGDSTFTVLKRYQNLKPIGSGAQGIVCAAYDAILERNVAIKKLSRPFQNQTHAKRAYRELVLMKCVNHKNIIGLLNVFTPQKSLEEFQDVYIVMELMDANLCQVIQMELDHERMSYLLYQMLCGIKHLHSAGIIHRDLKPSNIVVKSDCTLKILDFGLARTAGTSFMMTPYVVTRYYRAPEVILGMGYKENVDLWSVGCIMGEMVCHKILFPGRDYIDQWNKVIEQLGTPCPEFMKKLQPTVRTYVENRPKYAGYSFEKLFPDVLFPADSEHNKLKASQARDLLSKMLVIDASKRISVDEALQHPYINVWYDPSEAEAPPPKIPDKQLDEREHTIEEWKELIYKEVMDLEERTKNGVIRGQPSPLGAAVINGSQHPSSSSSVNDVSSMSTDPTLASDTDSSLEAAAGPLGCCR
UniProt P39880: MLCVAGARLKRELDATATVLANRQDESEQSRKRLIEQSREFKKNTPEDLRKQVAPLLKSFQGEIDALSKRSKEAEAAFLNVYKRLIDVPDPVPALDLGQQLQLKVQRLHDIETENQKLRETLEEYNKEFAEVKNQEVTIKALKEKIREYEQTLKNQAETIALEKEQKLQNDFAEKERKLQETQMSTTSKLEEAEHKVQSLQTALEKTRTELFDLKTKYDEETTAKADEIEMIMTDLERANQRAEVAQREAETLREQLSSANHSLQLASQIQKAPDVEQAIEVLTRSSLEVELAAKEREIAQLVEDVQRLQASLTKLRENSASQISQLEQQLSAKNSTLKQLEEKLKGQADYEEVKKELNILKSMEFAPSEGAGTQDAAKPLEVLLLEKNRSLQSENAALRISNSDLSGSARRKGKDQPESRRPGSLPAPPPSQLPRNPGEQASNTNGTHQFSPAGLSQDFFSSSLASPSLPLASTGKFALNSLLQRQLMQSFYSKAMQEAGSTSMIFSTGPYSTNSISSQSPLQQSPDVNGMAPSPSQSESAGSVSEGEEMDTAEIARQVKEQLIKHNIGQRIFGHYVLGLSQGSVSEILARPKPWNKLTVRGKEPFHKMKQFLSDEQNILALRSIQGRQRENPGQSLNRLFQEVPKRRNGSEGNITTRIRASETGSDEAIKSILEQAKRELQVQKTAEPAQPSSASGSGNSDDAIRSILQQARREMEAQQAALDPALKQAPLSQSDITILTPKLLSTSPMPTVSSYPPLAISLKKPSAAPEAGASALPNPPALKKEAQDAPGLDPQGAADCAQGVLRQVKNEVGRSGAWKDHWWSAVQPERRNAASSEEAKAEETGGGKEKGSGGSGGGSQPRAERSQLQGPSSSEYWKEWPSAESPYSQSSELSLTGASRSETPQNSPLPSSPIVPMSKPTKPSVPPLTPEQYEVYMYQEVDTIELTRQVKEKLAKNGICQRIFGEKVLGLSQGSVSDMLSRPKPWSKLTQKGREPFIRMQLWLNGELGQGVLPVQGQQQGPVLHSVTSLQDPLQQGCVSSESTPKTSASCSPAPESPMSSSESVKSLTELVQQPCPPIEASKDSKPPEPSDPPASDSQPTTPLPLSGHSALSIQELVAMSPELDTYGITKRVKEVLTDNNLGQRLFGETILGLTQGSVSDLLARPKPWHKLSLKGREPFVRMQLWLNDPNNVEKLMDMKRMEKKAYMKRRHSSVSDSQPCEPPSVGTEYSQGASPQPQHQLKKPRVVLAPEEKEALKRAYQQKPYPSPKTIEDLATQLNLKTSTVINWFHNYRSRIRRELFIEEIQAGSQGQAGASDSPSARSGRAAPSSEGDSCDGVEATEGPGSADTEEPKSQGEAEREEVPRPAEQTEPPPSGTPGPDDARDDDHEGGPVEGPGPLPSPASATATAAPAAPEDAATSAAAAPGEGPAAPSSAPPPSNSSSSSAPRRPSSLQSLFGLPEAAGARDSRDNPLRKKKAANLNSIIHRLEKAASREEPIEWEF
UniProt P32019: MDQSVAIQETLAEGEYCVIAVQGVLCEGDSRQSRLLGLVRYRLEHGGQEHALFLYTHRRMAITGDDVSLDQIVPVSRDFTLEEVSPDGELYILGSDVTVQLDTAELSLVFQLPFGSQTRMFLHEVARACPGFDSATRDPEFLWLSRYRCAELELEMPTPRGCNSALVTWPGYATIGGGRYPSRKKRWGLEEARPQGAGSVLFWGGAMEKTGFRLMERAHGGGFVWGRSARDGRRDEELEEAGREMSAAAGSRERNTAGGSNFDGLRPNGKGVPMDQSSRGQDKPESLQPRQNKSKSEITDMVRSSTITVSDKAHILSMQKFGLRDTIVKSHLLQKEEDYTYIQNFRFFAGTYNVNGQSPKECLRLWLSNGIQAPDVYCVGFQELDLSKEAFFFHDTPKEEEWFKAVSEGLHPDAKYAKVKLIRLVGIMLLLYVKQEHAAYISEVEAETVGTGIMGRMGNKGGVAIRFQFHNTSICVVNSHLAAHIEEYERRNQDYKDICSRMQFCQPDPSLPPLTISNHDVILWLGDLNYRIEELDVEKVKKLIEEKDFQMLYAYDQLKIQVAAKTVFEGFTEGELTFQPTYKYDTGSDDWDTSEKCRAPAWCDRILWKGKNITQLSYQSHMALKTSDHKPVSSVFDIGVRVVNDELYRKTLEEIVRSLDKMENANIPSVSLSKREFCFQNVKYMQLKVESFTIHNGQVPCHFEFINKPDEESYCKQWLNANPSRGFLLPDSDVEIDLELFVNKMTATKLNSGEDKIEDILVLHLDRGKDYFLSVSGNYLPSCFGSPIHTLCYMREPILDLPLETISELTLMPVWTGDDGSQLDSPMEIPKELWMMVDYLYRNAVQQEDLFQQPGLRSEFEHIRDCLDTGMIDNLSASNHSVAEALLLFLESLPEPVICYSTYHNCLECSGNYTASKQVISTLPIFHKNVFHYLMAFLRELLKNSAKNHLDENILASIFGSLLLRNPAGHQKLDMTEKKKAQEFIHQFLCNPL
UniProt P31947: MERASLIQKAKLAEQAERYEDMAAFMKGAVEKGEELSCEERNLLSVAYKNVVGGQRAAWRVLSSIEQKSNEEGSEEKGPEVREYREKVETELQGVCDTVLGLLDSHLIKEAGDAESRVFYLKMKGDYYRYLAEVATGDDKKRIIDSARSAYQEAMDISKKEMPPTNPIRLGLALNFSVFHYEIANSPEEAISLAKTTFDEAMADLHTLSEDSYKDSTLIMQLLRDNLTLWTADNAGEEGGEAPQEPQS

The targets below were run with Cc1nc(Nc2ncc(C(=O)Nc3c(C)cccc3Cl)s2)cc(N2CCN(CCO)CC2)n1 [dasatinib] (assay: log2 fold change of tryptic peptide abundance, ligand vs vehicle (limited proteolysis) (log2 ratio); higher = more trypsin-susceptible (destabilized)). Details: ligand concentration: 5 uM; sample: K562 cleared lysate.

Row | Target | log2 fold change
1 | SHMT1 (peptide sequence: DADLWSSHDK, peptide start residue: 11) (UniProt P34896) | 0.149
2 | LTBR (peptide sequence: AWHLAETEHCGATPSNR, peptide start residue: 409) (UniProt P36941) | 0.21
3 | CCND2 (peptide sequence: YLPQCSYFK, peptide start residue: 37) (UniProt P30279) | 0.126
4 | LAP3 (peptide sequence: ETLNISGPPLK, peptide start residue: 69) (UniProt P28838) | -0.922
5 | RFC3 (peptide sequence: KALLMCEACR, peptide start residue: 225) (UniProt P40938) | 0.772
6 | ETV4 (peptide sequence: NRPAMNYDKLSR, peptide start residue: 380) (UniProt P43268) | 0.177
7 | ANP32A (peptide sequence: VSGGLEVLAEKCPNLTHLNLSGNK, peptide start residue: 76) (UniProt P39687) | 0.0684
8 | S100A11 (peptide sequence: DGYNYTLSK, peptide start residue: 28) (UniProt P31949) | 0.0373
9 | PRKAR1B (peptide sequence: RSPNEEYVEVGR, peptide start residue: 306) (UniProt P31321) | -0.504
10 | MCM4 (peptide sequence: THIDVIHYR, peptide start residue: 414) (UniProt P33991) | -0.566
11 | UniProt P41002 (peptide sequence: LAAAALLLAR, peptide start residue: 452) | 0.14
12 | MAGEA4 (peptide sequence: ALAETSYVK, peptide start residue: 270) (UniProt P43358) | -0.129
13 | AKR1C3 (peptide sequence: SKALEVTK, peptide start residue: 32) (UniProt P42330) | 0.751
14 | PSMC4 (peptide sequence: ADTLDPALLRPGR, peptide start residue: 314) (UniProt P43686) | -0.0523
15 | ERCC5 (peptide sequence: QYEDEGGFLKEVESR, peptide start residue: 265) (UniProt P28715) | 0.527
16 | AGL (peptide sequence: HSPSIHQSVVAVSR, peptide start residue: 735) (UniProt P35573) | 0.435
17 | HADHA (peptide sequence: CLAPMMSEVIR, peptide start residue: 550) (UniProt P40939) | -0.104
18 | UniProt P45983 (peptide sequence: LFPDVLFPADSEHNKLK, peptide start residue: 274) | 0.126
19 | CUX1 (peptide sequence: SKEAEAAFLNVYKR, peptide start residue: 71) (UniProt P39880) | 0.231

Row | Target | log2 fold change
20 | BLVRB (peptide sequence: LPSEGPRPAHVVVGDVLQAADVDK, peptide start residue: 40) (UniProt P30043) | 0.268
21 | BRCA1 (peptide sequence: DKPVDNAK, peptide start residue: 936) (UniProt P38398) | -0.343
22 | COIL (peptide sequence: NSSEKLPTELSK, peptide start residue: 270) (UniProt P38432) | -0.738
23 | UniProt P35030 (peptide sequence: DTLDNDIMLIK, peptide start residue: 159) | -0.0128
24 | INPP5B (peptide sequence: NITQLSYQSHMALK, peptide start residue: 612) (UniProt P32019) | -0.366
25 | PSMC2 (peptide sequence: DFLEAVNK, peptide start residue: 408) (UniProt P35998) | 0.581
26 | CLIP1 (peptide sequence: VELLNQLEEEKR, peptide start residue: 425) (UniProt P30622) | 0.187
27 | HNRNPH1 (peptide sequence: THYDPPR, peptide start residue: 193) (UniProt P31943) | -0.0516
28 | RPL4 (peptide sequence: LRVDKAAAAAAALQAK, peptide start residue: 349) (UniProt P36578) | 0.161
29 | UBA7 (peptide sequence: HSYLHLAENYLIR, peptide start residue: 883) (UniProt P41226) | -0.0823
30 | RPA3 (peptide sequence: EDSHPFDLGLYNEAVK, peptide start residue: 89) (UniProt P35244) | -0.0297
31 | EPS15 (peptide sequence: LDSPDPFK, peptide start residue: 794) (UniProt P42566) | 0.273
32 | ETV6 (peptide sequence: SPLDNMIR, peptide start residue: 203) (UniProt P41212) | -0.225
33 | CA8 (peptide sequence: DCEVTNDGHTIQVILK, peptide start residue: 79) (UniProt P35219) | 0.134
34 | CDC25C (peptide sequence: FKDNTIPDKVK, peptide start residue: 232) (UniProt P30307) | -0.0871
35 | MATR3 (peptide sequence: DGSASAAAKK, peptide start residue: 703) (UniProt P43243) | -0.255
36 | ECE1 (peptide sequence: FMEVMYGTK, peptide start residue: 417) (UniProt P42892) | -0.218
37 | SFN (peptide sequence: SAYQEAMDISKK, peptide start residue: 149) (UniProt P31947) | 0.299

A stretch from the list above:
Row | Target | log2 fold change
7 | ANP32A (peptide sequence: VSGGLEVLAEKCPNLTHLNLSGNK, peptide start residue: 76) (UniProt P39687) | 0.0684
8 | S100A11 (peptide sequence: DGYNYTLSK, peptide start residue: 28) (UniProt P31949) | 0.0373
9 | PRKAR1B (peptide sequence: RSPNEEYVEVGR, peptide start residue: 306) (UniProt P31321) | -0.504
